The assay has as its target PsaA of Cyanophora paradoxa photosystem I (Cyanophora paradoxa (endogenous, strain NIES-547)) (UniProt P48112). In words: cryo-EM structure; PSI tetramer purified from Cyanophora thylakoids; GraFix (glutaraldehyde cross-linked) tetramer at 3.8 Å with C2 symmetry; unfixed wild-type tetramer at 4.0 Å; focused maps of monomer1 and monomer2 at 3.3 Å and 3.2 Å; 0.03% β-DDM, 50 mM Mes-NaOH pH 6.5; both purified.

Chains of the proteins cited; added tags and fusions are not shown.
UniProt P48112: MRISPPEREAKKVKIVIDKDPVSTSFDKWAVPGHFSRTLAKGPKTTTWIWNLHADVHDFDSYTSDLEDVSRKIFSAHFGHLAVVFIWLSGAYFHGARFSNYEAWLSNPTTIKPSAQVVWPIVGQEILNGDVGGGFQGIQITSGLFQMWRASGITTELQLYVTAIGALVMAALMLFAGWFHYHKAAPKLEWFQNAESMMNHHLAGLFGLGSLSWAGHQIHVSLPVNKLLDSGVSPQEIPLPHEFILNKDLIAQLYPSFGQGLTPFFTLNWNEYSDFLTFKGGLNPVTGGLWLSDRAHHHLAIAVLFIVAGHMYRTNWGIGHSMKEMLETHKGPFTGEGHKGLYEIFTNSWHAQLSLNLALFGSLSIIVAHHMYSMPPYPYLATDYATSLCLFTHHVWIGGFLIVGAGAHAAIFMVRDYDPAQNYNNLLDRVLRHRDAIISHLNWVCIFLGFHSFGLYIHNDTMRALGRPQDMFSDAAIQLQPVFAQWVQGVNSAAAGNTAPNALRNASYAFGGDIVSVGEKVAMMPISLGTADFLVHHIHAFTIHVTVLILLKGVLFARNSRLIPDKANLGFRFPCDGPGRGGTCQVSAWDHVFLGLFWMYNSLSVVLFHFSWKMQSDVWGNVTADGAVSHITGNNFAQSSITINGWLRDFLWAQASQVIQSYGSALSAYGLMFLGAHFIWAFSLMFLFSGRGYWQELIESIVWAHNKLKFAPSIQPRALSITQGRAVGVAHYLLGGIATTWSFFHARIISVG

These are yes or no findings as the source states them, for the method shown. Some results given as binding are weak or reduced against the parent protein; the word gives no strength.

Among the data in article PMC8967866 are binding values, retold here.

As to “PsaA of Cyanophora paradoxa photosystem I (from UniProt P48112 1-752)”, the binding entry is on record as “binds”.
